# In the supplement of paper PMC12819154, “High-throughput peptide-centric local stability assay extends protein–ligand identification to membrane proteins, tissues and bacteria” (Nature Structural & Molecular Biology, 2025):
# The chains behind the UniProt entries cited, without tags or fusion partners. Where a name states a change or a piece, a line headed by the entry shows the natural chain unless it says otherwise.
# UniProt Q9WV74: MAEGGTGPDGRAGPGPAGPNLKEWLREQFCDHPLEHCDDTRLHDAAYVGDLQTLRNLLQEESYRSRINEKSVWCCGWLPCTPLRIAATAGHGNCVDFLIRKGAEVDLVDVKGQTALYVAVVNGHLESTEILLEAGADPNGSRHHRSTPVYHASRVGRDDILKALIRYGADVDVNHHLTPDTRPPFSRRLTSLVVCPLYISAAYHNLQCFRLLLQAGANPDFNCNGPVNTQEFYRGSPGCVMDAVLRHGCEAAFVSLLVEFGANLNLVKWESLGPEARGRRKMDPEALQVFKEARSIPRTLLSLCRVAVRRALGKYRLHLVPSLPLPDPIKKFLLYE
# UniProt Q9R1V7: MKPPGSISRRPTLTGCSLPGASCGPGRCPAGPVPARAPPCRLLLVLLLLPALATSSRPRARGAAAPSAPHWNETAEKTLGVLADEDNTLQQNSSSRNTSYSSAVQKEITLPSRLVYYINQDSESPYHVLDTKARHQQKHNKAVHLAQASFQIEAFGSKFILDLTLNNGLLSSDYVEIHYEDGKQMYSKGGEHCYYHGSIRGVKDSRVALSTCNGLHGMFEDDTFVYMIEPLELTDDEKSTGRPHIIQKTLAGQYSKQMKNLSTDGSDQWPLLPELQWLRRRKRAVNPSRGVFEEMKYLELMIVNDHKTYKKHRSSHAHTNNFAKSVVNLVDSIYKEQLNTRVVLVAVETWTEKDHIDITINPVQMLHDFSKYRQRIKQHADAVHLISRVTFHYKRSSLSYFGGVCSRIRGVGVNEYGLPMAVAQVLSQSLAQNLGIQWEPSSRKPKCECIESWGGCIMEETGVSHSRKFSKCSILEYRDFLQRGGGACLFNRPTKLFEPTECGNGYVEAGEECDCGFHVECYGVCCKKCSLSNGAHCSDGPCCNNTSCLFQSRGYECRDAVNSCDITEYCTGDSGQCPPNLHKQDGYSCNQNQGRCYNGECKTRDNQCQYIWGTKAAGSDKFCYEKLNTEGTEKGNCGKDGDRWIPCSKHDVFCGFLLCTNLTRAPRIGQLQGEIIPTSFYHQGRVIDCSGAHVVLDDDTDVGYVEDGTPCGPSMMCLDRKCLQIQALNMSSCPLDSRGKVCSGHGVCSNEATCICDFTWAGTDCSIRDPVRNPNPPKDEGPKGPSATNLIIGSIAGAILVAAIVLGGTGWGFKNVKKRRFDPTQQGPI
# UniProt Q9R1A8, whole entry: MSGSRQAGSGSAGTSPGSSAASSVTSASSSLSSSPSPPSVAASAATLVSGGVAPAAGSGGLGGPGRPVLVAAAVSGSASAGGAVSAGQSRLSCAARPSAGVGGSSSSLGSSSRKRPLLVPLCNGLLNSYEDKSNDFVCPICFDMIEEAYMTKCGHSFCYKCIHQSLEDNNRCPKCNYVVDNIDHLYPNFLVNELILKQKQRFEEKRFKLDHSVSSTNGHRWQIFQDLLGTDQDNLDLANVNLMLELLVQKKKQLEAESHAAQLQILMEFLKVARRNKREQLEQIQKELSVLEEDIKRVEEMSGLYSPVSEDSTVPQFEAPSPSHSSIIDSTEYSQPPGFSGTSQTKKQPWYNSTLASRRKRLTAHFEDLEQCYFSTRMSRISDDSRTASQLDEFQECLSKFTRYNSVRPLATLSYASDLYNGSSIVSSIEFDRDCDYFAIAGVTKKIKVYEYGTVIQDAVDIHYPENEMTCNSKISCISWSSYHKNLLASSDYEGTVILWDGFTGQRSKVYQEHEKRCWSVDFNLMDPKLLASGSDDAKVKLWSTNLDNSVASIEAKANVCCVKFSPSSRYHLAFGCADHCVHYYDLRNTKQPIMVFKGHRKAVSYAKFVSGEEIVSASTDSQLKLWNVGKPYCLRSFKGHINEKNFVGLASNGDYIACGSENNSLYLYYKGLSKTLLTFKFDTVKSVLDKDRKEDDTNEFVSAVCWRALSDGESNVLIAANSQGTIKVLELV
# UniProt Q9WUV0: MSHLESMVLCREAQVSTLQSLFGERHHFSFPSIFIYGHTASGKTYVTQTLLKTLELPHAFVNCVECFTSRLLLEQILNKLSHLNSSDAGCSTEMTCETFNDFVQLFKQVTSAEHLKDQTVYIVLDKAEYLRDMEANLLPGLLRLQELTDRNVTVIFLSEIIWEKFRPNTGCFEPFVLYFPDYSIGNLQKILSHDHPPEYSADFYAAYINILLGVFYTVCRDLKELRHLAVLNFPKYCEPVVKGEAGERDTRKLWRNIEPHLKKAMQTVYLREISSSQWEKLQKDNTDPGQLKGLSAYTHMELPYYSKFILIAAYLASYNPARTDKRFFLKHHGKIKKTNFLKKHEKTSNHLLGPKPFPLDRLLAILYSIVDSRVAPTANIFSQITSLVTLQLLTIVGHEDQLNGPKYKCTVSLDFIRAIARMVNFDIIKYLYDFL
# UniProt Q9WUF3: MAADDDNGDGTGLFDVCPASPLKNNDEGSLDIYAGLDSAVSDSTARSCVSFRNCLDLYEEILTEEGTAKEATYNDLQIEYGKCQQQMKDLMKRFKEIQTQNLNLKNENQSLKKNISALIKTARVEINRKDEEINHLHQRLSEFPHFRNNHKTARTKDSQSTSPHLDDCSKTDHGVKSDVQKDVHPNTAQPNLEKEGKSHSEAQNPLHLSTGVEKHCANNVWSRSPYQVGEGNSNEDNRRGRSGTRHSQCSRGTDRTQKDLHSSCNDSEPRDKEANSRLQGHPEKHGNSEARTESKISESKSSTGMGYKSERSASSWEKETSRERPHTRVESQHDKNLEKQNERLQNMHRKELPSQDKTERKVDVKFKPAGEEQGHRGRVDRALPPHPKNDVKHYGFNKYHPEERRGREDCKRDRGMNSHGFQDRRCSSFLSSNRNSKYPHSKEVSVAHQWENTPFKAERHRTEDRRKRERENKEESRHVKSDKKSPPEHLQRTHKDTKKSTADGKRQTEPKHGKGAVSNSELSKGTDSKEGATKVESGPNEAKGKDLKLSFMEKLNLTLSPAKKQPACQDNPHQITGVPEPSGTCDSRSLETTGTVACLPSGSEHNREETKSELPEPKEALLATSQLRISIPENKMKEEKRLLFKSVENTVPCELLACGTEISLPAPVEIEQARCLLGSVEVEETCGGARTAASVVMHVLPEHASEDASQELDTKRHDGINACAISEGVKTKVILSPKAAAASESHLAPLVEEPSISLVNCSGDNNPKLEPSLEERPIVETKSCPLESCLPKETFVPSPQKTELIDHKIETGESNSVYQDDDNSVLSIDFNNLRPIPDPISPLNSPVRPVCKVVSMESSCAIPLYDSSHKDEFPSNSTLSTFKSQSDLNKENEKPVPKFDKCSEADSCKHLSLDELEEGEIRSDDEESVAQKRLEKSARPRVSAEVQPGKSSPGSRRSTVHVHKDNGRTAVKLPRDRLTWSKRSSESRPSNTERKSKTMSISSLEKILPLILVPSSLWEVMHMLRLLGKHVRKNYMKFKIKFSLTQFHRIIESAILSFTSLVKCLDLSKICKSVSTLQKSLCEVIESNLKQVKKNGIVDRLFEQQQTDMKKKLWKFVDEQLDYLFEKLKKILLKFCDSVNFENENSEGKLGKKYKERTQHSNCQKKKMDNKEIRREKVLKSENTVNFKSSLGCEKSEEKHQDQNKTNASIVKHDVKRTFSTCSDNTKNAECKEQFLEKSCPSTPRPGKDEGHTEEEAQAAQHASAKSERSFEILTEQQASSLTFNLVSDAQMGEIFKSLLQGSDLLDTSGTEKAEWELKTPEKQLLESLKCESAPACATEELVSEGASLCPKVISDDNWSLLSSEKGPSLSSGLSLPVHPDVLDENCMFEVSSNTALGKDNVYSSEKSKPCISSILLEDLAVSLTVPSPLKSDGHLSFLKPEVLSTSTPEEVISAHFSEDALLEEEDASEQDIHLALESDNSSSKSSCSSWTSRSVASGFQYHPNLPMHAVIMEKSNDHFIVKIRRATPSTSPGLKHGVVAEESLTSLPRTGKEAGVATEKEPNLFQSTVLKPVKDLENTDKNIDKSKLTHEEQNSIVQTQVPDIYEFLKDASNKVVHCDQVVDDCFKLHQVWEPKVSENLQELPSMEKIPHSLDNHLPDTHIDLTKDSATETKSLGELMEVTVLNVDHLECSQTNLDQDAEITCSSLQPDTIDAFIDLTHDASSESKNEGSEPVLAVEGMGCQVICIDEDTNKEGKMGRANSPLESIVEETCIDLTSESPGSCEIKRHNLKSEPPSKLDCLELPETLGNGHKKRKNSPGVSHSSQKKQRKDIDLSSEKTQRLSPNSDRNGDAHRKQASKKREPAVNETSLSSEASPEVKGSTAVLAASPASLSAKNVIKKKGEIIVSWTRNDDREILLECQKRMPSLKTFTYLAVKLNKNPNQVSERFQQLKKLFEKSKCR
# UniProt Q9QXE7: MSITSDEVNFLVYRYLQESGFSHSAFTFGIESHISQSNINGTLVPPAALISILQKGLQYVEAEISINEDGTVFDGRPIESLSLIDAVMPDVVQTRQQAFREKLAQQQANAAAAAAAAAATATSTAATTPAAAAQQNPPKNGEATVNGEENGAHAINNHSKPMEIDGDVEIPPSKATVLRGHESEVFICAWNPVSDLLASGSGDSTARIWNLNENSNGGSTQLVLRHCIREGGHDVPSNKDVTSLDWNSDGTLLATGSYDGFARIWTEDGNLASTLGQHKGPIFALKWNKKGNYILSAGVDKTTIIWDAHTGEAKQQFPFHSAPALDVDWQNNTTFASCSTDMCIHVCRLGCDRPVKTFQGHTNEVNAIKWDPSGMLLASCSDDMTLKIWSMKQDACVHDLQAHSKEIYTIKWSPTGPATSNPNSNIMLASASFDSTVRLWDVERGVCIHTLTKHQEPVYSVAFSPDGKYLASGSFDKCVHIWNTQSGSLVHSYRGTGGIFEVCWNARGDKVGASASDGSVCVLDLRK
# UniProt Q9QY24: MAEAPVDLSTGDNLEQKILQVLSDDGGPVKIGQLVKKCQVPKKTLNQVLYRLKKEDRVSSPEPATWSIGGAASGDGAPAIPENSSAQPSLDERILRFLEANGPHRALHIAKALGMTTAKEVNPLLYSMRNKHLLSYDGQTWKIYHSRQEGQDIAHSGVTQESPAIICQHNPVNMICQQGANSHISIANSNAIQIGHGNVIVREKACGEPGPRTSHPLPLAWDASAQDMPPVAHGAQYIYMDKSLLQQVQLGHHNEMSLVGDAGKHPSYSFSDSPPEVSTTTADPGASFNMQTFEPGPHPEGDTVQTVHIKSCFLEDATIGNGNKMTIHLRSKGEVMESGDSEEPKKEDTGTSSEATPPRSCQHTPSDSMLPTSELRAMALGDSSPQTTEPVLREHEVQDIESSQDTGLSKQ
# UniProt Q9WV80, whole entry: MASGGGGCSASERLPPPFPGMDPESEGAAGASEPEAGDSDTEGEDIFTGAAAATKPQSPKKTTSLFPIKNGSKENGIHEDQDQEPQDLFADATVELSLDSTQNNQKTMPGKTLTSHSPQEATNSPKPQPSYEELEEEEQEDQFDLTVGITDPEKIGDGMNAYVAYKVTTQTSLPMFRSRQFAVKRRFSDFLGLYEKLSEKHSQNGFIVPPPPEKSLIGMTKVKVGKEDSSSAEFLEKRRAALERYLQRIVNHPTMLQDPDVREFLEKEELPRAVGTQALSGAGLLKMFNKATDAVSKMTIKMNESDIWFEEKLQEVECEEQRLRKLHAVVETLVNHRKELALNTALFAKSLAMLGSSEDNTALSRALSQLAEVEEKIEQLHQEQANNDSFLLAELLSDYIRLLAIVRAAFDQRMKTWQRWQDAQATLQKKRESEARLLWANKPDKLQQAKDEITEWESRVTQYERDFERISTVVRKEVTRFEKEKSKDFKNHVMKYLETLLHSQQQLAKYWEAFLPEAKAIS
# UniProt Q9WTM5, whole entry: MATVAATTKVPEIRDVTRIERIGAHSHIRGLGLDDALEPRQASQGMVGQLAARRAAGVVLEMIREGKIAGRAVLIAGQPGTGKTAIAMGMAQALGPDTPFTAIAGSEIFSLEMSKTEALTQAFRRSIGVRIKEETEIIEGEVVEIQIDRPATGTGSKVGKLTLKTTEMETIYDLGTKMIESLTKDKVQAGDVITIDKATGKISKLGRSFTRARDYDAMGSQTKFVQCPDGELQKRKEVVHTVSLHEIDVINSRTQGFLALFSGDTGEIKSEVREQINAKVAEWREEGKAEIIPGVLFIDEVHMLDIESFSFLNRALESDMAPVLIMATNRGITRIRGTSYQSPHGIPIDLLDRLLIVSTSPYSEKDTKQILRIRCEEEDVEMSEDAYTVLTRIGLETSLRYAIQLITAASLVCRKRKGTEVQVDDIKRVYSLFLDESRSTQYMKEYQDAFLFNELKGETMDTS
# The list shows a part of the results. Most entries show no effect beyond the scatter of the controls.
# Compound: CN[C@@H]1C[C@H]2O[C@@](C)([C@@H]1OC)n1c3ccccc3c3c4c(c5c6ccccc6n2c5c31)C(=O)NC4 [staurosporine]
# Experiment: log2 fold change of tryptic peptide abundance, ligand vs vehicle (limited proteolysis) (log2 ratio); higher = more trypsin-susceptible (destabilized)
# Conditions: ligand concentration: 20 uM; sample: mouse liver crude lysate; replicate design: treated separately
row,Target,log2 fold change
1,"UniProt Q9WV74 (peptide sequence: STPVYHASR, peptide start residue: 146)",-0.0518
2,"UniProt Q9R1V7 (peptide sequence: RFDPTQQGPI, peptide start residue: 820)",0.0674
3,"UniProt Q9R1A8 (peptide sequence: SVLDKDRK, peptide start residue: 687)",0.575
4,"UniProt Q9WUV0 (peptide sequence: NIEPHLKK, peptide start residue: 256)",-0.779
5,"UniProt Q9WUF3 (peptide sequence: KNYMKFK, peptide start residue: 1033)",0.136
6,"UniProt Q9QXE7 (peptide sequence: GVCIHTLTK, peptide start residue: 445)",0.2
7,"UniProt Q9QZC2 (peptide sequence: VKEMYLTK, peptide start residue: 1352)",0.32
8,"UniProt Q9QY24 (peptide sequence: ILQVLSDDGGPVKIGQLVK, peptide start residue: 18)",-0.571
9,"UniProt Q9WV80 (peptide sequence: LQEVECEEQR, peptide start residue: 313)",0.184
10,"UniProt Q9WTM5 (peptide sequence: VYSLFLDESR, peptide start residue: 429)",-0.311

# Reformatted: entries from further up.
row	Target	log2 fold change
8	UniProt Q9QY24 (peptide sequence: ILQVLSDDGGPVKIGQLVK, peptide start residue: 18)	-0.571
9	UniProt Q9WV80 (peptide sequence: LQEVECEEQR, peptide start residue: 313)	0.184
